Measurements reported in PubChem BioAssay AID1259254 (NCATS, 2017)
The deposit covers about 59,000 reagents; this is a part drawn at random. In the full data, about 1,550 (2.6%) were called active. 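G2 share is only a proxy for re-replication; each gene was hit by three separate siRNAs, and active genes were retested.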 Reagents against one gene are numbered here. Further read-outs or replicates are left out here. Not given: the amount of reagent.

Test: 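Finding genes that stop cells copying their DNA twice in one cycle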 (primary screen)
System: human HCT116 colorectal cancer cells
Reagents: single siRNA against human genes
Timing: 3 days
Read-out: 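Nuclei stained with Hoechst and imaged; cell-cycle phase assigned by DNA content; G2 share scaled per plate, non-targeting siRNA 0%, GMNN siRNA 100%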
Reading the numbers: G2 robust z-score and G2 cells, % of GMNN control: higher = more G2 cells, more excess DNA replication
Hit rule: 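An siRNA counts as active if its G2 robust z-score lies at least 5 MADs above the screen median; here such calls match roughly 38% of GMNN control or more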

G2 robust z-score | G2 cells, % of GMNN control | Call | gene knocked down | reagent
-0.16 | 1.84 | inactive | TUBGCP4 | 1
2.57 | 21 | inactive | TUBGCP4 | 2
-0.672 | -1.76 | inactive | TUBGCP4 | 3
0.393 | 5.73 | inactive | ORC3 | 1
2.5 | 20.5 | inactive | ORC3 | 2
-0.582 | -1.13 | inactive | ORC3 | 3
-1.44 | -7.16 | inactive | CBR3 | 1
0.396 | 5.76 | inactive | CBR3 | 2
0.481 | 6.35 | inactive | CBR3 | 3
1.28 | 11.9 | inactive | OR6K3 | 1
-0.963 | -3.81 | inactive | OR6K3 | 2
-0.877 | -3.21 | inactive | OR6K3 | 3
-0.517 | -0.673 | inactive | LRRC14 | 1
2.92 | 23.5 | inactive | LRRC14 | 2
-0.611 | -1.33 | inactive | LRRC14 | 3
-0.799 | -2.65 | inactive | COX6A2 | 1
-1.23 | -5.66 | inactive | COX6A2 | 2
0.467 | 6.25 | inactive | COX6A2 | 3
2.28 | 19 | inactive | RBM4B | 1
0.0314 | 3.19 | inactive | RBM4B | 2
0.071 | 3.47 | inactive | RBM4B | 3
-1.43 | -7.07 | inactive | RALBP1 | 1
0.381 | 5.65 | inactive | RALBP1 | 2
5.33 | 40.4 | active | RALBP1 | 3
0.0597 | 3.39 | inactive | SARNP | 1
0.142 | 3.97 | inactive | SARNP | 2
0.0397 | 3.25 | inactive | SARNP | 3
-0.553 | -0.921 | inactive | JAML | 1
-0.0281 | 2.77 | inactive | JAML | 2
-0.991 | -4.01 | inactive | JAML | 3

Reprinted from above (4 entries):
G2 robust z-score | G2 cells, % of GMNN control | Call | gene knocked down | reagent
0.0397 | 3.25 | inactive | SARNP | 3
-0.553 | -0.921 | inactive | JAML | 1
-0.0281 | 2.77 | inactive | JAML | 2
-0.991 | -4.01 | inactive | JAML | 3
